Biological target: cAMP and cAMP-inhibited cGMP 3',5'-cyclic phosphodiesterase 10A (Homo sapiens, UniProt Q9Y233)

Amino acid sequences for entries named in this document (tags omitted). A change or cut given only in a name is not applied to a line headed by its entry.
UniProt Q9Y233: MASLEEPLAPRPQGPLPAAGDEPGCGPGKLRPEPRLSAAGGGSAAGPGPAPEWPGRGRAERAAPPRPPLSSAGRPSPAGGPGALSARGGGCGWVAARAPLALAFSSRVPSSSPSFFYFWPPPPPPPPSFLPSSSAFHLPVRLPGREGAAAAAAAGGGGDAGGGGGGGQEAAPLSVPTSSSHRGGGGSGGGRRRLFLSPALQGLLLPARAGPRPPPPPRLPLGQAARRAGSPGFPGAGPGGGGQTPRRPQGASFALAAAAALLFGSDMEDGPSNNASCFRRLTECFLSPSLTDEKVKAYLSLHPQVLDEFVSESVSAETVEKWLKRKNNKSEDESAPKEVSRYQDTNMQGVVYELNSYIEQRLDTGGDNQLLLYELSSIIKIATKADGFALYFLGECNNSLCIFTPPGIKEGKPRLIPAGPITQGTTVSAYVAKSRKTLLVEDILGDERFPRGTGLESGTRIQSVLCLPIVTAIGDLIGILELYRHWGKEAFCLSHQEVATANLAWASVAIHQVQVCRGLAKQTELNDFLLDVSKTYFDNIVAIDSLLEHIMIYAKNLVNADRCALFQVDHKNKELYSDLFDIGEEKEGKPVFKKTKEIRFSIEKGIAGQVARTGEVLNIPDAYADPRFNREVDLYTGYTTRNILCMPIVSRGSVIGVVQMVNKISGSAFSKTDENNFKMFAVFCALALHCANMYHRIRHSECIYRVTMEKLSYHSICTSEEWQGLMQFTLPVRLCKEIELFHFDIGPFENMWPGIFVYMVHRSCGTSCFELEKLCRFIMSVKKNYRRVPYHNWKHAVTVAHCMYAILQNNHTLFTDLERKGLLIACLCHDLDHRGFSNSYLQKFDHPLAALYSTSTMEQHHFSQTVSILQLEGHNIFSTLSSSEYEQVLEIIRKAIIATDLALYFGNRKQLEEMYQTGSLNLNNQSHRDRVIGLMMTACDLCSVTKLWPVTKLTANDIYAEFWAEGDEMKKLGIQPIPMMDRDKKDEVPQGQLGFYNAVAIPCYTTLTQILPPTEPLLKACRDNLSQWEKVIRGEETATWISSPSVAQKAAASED

Compound | IC50 | Ki
CCCOc1ccc(F)c(-c2nc(C)c3nnc4ccc(OC)nc4n23)c1 | 282 nM | –
CN1CCN(c2ccc(Oc3nn4c(-c5ccccc5Cl)nnc4c4ccccc34)cc2)CC1 | – | 1800 nM

— ChEMBL document CHEMBL5729263, “Treatment of tachycardia” (2022)
